Assay results published in the supplement of paper PMC7238544.
Counter-ions that a name gives are not always drawn. ± gives the standard deviation of the averaged measurements. The list shows a part of the results. The data scatter; read single values as rough.

How the values were obtained:
hAMSC donor 1 [1] = test: transgenic luciferase activity (RLU/mg protein) fold change vs vehicle control (ratio); higher = more transgene expression
hAMSC donor 1 [2] = test: transfection efficiency (EGFP+ cells / Hoechst count) fold change vs vehicle control (ratio); higher = enhanced transfection
hAMSC donor 2 [3] = test: as above
hAMSC donor 1 [4] = test: Hoechst total cell count ratio vs vehicle control; higher = more cells (less toxicity)
hAMSC donor 2 [5] = test: as above
hAMSC donor 2 [6] = test: transgenic luciferase activity (RLU/mg protein) fold change vs vehicle control (ratio); hAMSC are human adipose-derived mesenchymal stem cells given an EGFP-luciferase plasmid by lipofection; higher = more transgene expression
[7] = priming compound concentration 0.2 µM
[8] = priming compound concentration 1.7 µM
[9] = priming compound concentration 13 µM

Structure (SMILES)	transgenic luciferase activity (hAMSC donor 1 [1]; [7])	transfection efficiency (hAMSC donor 1 [2]; [7])	transfection efficiency (hAMSC donor 1 [2]; [8])	transfection efficiency (hAMSC donor 1 [2]; [9])	transfection efficiency (hAMSC donor 2 [3]; [7])	transfection efficiency (hAMSC donor 2 [3]; [8])	transfection efficiency (hAMSC donor 2 [3]; [9])	Hoechst total cell count ratio (hAMSC donor 1 [4]; [7])	Hoechst total cell count ratio (hAMSC donor 1 [4]; [8])	Hoechst total cell count ratio (hAMSC donor 1 [4]; [9])	Hoechst total cell count ratio (hAMSC donor 2 [5]; [7])	Hoechst total cell count ratio (hAMSC donor 2 [5]; [8])	Hoechst total cell count ratio (hAMSC donor 2 [5]; [9])	transgenic luciferase activity (hAMSC donor 2 [6]; [9])	transgenic luciferase activity (hAMSC donor 1 [1]; [8])	transgenic luciferase activity (hAMSC donor 2 [6]; [8])	transgenic luciferase activity (hAMSC donor 1 [1]; [9])
Cc1cccc(CCN2CCC(C(=O)c3ccc(NS(C)(=O)=O)cc3)CC2)n1 [E-4031 dihydrochloride]	0.876 ± 0.26	1.33 ± 0.25	1 ± 0.11	0.985 ± 0.35	0.855 ± 0.091	0.938 ± 0.06	0.899 ± 0.21										
CC(=O)Nc1ccc(CC(=O)O)cc1 [Actarit]	1.22 ± 0.77	1 ± 0.35	1.31 ± 0.3	1.17 ± 0.22	1.09 ± 0.11	0.864 ± 0.076	1.09 ± 0.24	1.04 ± 0.11	1.03 ± 0.2	1.05 ± 0.058	0.996 ± 0.14	1.18 ± 0.034	1.14 ± 0.077				
COc1cc2c(cc1OC)C(=O)C(CC1CCN(Cc3ccccc3)CC1)C2 (stereo not drawn) [Donepezil hydrochloride]		1.74 ± 1.6	1.43 ± 0.69	0.999 ± 0.14	1.12 ± 0.33	1.27 ± 0.26	1.28 ± 0.057	1.15 ± 0.042	0.896 ± 0.24	0.935 ± 0.029	1.2 ± 0.31	1.03 ± 0.044	0.984 ± 0.073	0.546 ± 0.01			
CCn1cc(C(=O)O)c(=O)c2cc(F)c(N3CCNCC3)cc21 [Norfloxacin]		1.51 ± 0.15	0.8595 ± 0.0082	1.1 ± 0.17	1.15 ± 0.18	1.01 ± 0.37	1.02 ± 0.28	1.31 ± 0.23	1.29 ± 0.13	1.33 ± 0.03	1 ± 0.19	1.04 ± 0.071	1.06 ± 0.24		0.477 ± 0.32		
NC1CCN(c2nc3c(cc2F)c(=O)c(C(=O)O)cn3-c2ccc(F)cc2F)C1 (stereo not drawn) [Tosufloxacin tosilate]		1.1 ± 0.17	1.21 ± 0.24	1.04 ± 0.37	0.946 ± 0.17	1.29 ± 0.098	1.01 ± 0.19	1.35 ± 0.18	1.12 ± 0.12	1.35 ± 0.31	1.24 ± 0.21	1.19 ± 0.064	1.02 ± 0.076	0.665 ± 0.038			
COc1ccc(C(=O)NCc2ccc(OCCN(C)C)cc2)cc1OC [Itopride hydrochloride]		1.18 ± 0.13	0.961 ± 0.084	1.16 ± 0.094	1.29 ± 0.056	1.22 ± 0.053	1.01 ± 0.3	1.53 ± 0.063	1.37 ± 0.086	1.16 ± 0.052	1.05 ± 0.15	1.1 ± 0.07	1.52 ± 0.21			0.338 ± 0.1	
COC(=O)C1=C(C)NC(C)=C(C(=O)OCC(C)C)C1c1ccccc1[N+](=O)[O-] (stereo not drawn) [Nisoldipine]		0.949 ± 0.17	0.989 ± 0.14	0.906 ± 0.027	0.448 ± 0.019	1.05 ± 0.12	1.22 ± 0.12	1.27 ± 0.21	1.25 ± 0.1	1.22 ± 0.082	1.59 ± 0.05	1.23 ± 0.021	1.41 ± 0.067				0.779 ± 0.33
CNC(=N)NCCC[C@H](N)C(=O)O [L-NMMA acetate]		0.925 ± 0.36	1.13 ± 0.11	1.2 ± 0.33	1.03 ± 0.12	1.34 ± 0.097	1.26 ± 0.069	1.02 ± 0.032	1.43 ± 0.15	1.21 ± 0.048	0.828 ± 0.13	1.18 ± 0.049	0.888 ± 0.067	1.65 ± 0.78			
